Results: US20250186546A1, “Compositions and Methods to Prevent, Inhibit or Treat Autoimmune and Vascular Disease” (priority 2023, published 2025)
Results are given in words; binding and its absence hold for the method and conditions named. For some assays here: In cells and extracts the contact can be indirect. Some entries that bind do so weakly or less than the wild type.

Sequences of proteins named here, by UniProt entry; tags and fusion partners are left off. Residues count along the entry.
UniProt Q9DCD6, residues 1-116: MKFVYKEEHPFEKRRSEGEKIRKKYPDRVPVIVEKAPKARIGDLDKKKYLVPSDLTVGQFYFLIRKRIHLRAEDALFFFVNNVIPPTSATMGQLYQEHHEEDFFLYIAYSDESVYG
UniProt Q6VNB8: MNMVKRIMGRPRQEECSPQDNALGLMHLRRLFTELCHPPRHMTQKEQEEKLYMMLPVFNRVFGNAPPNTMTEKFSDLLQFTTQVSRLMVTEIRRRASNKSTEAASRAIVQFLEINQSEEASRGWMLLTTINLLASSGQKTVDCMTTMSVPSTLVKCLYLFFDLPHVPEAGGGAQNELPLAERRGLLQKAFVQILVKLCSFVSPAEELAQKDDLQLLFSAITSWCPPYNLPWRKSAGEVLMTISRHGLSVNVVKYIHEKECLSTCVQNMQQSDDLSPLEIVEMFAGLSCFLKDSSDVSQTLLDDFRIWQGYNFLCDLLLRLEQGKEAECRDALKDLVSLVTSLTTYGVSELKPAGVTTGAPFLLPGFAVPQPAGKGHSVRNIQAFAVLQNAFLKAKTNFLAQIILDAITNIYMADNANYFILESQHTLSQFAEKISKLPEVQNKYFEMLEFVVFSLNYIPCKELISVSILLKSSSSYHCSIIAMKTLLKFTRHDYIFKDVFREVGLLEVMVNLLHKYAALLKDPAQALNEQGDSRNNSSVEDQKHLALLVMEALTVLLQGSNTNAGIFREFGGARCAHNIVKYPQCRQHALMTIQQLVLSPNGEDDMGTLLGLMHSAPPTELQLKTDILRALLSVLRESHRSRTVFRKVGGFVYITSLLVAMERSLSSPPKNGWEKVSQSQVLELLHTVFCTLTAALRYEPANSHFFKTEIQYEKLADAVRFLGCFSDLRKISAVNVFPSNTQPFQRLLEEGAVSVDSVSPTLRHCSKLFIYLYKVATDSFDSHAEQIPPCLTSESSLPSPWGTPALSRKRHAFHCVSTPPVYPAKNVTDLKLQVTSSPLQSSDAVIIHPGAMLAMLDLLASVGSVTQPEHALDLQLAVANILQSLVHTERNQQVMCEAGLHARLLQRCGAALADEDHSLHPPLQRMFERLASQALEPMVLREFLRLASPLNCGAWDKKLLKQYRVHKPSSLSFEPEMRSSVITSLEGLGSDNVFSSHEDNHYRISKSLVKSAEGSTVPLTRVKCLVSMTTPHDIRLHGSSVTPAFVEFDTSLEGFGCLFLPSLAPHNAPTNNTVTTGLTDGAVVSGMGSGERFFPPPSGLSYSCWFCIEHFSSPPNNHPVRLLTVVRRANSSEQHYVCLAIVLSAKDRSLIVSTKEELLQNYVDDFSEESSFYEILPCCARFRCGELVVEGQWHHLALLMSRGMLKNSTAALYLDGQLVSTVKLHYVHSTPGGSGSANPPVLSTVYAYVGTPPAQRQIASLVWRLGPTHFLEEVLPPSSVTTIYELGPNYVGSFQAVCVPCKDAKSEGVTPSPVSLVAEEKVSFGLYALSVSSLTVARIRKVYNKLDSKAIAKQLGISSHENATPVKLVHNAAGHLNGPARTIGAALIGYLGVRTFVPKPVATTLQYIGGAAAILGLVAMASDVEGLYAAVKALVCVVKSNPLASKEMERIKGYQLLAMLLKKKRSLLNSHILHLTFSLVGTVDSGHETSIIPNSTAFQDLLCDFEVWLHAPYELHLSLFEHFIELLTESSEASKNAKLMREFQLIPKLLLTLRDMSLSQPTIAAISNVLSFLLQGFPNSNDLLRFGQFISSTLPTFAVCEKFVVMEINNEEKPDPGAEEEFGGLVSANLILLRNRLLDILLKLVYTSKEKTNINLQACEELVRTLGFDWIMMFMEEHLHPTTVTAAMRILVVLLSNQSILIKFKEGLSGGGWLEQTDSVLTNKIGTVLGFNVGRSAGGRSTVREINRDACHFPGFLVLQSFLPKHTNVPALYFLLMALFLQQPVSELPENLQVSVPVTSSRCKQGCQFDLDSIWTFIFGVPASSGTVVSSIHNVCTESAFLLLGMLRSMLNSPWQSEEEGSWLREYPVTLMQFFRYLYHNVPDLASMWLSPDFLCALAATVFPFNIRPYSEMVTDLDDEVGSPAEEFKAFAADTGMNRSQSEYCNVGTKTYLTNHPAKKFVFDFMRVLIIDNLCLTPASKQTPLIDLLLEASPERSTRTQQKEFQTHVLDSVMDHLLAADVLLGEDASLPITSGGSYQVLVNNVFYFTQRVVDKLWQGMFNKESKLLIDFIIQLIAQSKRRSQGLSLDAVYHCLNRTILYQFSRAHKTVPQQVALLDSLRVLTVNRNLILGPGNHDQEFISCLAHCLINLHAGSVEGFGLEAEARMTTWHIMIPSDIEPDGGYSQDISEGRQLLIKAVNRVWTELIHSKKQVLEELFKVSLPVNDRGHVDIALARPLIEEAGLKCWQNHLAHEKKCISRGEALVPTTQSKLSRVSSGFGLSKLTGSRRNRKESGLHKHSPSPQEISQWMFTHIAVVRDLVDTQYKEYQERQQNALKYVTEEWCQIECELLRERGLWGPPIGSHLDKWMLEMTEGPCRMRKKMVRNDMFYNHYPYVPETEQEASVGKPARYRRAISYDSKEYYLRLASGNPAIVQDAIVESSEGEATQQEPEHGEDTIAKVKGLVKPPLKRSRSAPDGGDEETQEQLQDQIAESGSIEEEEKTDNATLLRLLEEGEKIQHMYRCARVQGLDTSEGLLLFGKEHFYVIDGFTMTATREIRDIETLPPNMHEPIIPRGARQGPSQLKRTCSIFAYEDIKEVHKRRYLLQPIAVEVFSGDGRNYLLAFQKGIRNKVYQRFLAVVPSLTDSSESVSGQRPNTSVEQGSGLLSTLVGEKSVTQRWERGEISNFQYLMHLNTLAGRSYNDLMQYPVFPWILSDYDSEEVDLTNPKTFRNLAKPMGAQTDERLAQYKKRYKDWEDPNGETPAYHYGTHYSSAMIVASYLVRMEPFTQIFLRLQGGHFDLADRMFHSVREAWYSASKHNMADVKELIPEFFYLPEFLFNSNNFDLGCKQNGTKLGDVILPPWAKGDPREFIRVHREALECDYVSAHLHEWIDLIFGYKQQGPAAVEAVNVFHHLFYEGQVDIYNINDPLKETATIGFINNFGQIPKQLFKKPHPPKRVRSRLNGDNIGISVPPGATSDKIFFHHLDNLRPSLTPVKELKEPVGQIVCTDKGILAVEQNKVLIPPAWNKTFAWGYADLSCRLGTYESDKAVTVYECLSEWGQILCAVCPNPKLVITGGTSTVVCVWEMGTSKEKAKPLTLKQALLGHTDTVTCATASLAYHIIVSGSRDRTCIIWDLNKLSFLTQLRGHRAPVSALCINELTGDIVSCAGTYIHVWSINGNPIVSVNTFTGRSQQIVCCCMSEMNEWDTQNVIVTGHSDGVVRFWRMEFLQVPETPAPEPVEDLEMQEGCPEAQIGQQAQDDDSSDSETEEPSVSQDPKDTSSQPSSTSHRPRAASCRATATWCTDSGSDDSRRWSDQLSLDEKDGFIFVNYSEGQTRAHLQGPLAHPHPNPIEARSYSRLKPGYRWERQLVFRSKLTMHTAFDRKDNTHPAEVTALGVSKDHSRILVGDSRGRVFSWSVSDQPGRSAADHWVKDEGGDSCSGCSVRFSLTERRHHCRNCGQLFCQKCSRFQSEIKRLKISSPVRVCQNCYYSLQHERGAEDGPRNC

What was measured:
[1] = target: GABARAP, endogenous protein of mouse bone marrow-derived macrophages (mouse) (UniProt Q9DCD6); experiment: legend of the schematic summary FIG. 7A
[2] = target: GABARAP, endogenous protein of mouse bone marrow-derived macrophages (mouse) (UniProt Q9DCD6); experiment: co-immunoprecipitation from BMDM lysate (discussion of Example 1)
[3] = target: GABARAP, endogenous protein of mouse bone marrow-derived macrophages (mouse) (UniProt Q9DCD6); experiment: co-immunoprecipitation from BMDM lysate with anti-GABARAP antibody and protein A/G beads, WDFY3 immunoblot
[4] = target: GABARAP, endogenous protein of mouse bone marrow-derived macrophages (mouse) (UniProt Q9DCD6); experiment: pull-down assay, macrophage lysates
[5] = target: GABARAP, endogenous protein of mouse bone marrow-derived macrophages (mouse) (UniProt Q9DCD6); experiment: co-immunoprecipitation from BMDM lysate (summary sentence of Example 1)

Measured: binding

WDFY3 (WD repeat and FYVE domain containing 3), endogenous protein of mouse bone marrow-derived macrophages (from UniProt Q6VNB8 1-3508)
binds: all assays above
